# From PubChem BioAssay AID2551 (National Center for Advancing Translational Sciences (NCATS), 2010)
# Amino acid sequences for entries named in this document (tags omitted). A change or cut given only in a name is not applied to a line headed by its entry.
# UniProt P51450: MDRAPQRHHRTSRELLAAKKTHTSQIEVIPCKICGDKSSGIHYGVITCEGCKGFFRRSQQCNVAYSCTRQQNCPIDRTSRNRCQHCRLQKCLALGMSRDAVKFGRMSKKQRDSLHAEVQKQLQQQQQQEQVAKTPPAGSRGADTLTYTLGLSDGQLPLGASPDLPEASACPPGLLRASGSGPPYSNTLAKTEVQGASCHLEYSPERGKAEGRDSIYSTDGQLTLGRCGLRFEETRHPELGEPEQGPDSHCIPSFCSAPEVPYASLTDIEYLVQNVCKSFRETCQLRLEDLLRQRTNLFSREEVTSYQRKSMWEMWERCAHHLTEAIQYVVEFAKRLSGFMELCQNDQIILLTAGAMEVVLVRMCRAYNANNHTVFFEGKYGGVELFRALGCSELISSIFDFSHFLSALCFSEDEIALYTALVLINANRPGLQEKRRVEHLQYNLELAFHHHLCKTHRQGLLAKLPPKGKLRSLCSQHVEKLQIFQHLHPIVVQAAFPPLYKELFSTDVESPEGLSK
# About 17,000 (5.5%) of roughly 310,000 compounds were called active. This list was built around the results that the source calls inconclusive (neither active nor inactive); the mix of calls is not that of the screen. Calls follow the shape of the dose curve; as a rule, active = well fitted inhibition curve with a large enough effect; inconclusive = small, poorly fitted or top-dose-only effect, or effect the other way; inactive = no such curve, though single readings can be large or run the other way. Where the call is inconclusive, the potency comes from a doubtful curve fit.
# Target: Nuclear receptor ROR-gamma (Mus musculus) (UniProt P51450)
# Experiment: qHTS for inhibitors of ROR gamma transcriptional activity; also: nearly all actives have a fitted effect of over 60% in size
# Settings: Drosophila S2 Gal4-RORgamma UAS-luciferase reporter, 20 h; series mostly up to 53.6 µM
# How it was run: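 Compounds are pin-transferred onto Drosophila Schneider cells expressing a copper-inducible Gal4–ROR gamma transactivation domain fusion. After 1 hr, copper sulfate is added to 700 uM final; luciferase is read 20 hr later.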
# Potency is read from the fitted curve at half-maximal effect.
row,Structure (SMILES),Potency
1,Cc1ccccc1-n1c(=O)c2ccccc2n2cnnc12,inactive
2,CCOc1ccc(CN(CC)C(=O)c2ccc3c(c2)[nH]c(=O)c(=O)n3CC)cc1OC,inactive
3,C=CCSC1=NC(=O)/C(=C/c2cccs2)S1,"inconclusive: 14.1 µM [activator, single point]"
4,CCOC(=O)c1nnsc1NC(=O)Nc1ccc(OC)cc1,"inconclusive: 4.47 µM [inhibitor, single point]"
5,CCOC(=O)Cc1cc(=O)n2[nH]c(C)c(-c3ccc(Cl)cc3)c2n1,active: 11.2 µM
6,COc1cc(CN2CCC(CO)(Cc3cccc(C(F)(F)F)c3)CC2)ccc1F,"inconclusive: 17.8 µM [inhibitor, partial curve, poor fit]"
7,CCN(CC)c1ccc(/C=N/N2CCN(Cc3cccc4ccccc34)CC2)c(O)c1,inactive
8,COc1ccc(OC)c(Nc2nc(NCCO)c3ccccc3n2)c1,"inconclusive: 3.98 µM [activator, full curve]"
9,O=C(Nc1cccc(C(F)(F)F)c1)c1ccc2nc(-c3ccco3)c(-c3ccco3)nc2c1,"inconclusive: 35.5 µM [inhibitor, single point]"
10,Cn1c(=O)c2c(nc(N3CCc4ccccc4C3)n2Cc2ccccc2F)n(C)c1=O,"inconclusive: 8.91 µM [activator, partial curve, poor fit]"
11,Cc1cc(/C(N)=N/OC(=O)c2ccc(Cl)cc2)no1,inactive
12,O=C(Nc1ccc(Cl)cc1Cl)c1n[nH]c(Cn2cncn2)n1,"inconclusive: 11.2 µM [inhibitor, single point]"
13,Cc1coc2cc3oc(=O)c(CCC(=O)N4CCC(C(=O)O)(c5ccccc5)CC4)c(C)c3cc12,inactive
14,COC(=O)c1ccc(NC(=O)CN(c2ccc(OC)cc2)S(C)(=O)=O)cc1,"inconclusive: 0.708 µM [activator, partial curve, poor fit]"
15,Oc1ccc2nnc3c(Br)cnn3c2c1,"inconclusive: 11.2 µM [activator, partial curve, poor fit]"
16,Cc1cc(-n2c(C)cc(C(=O)CN3C(=O)NC4(CCCCC4C)C3=O)c2C)no1 (centres undefined),"inconclusive: 6.31 µM [inhibitor, single point]"
17,O=C(COc1cccc2cccnc12)NNC(=S)Nc1ccccc1,active: 0.891 µM
18,O=C(N/C(=C/c1ccco1)C(=O)N1CCOCC1)c1cccs1,inactive
19,Cc1ccc(-n2nc3cc(C)c(NC(=O)c4cccnc4)cc3n2)cc1,"inconclusive: 5.01 µM [activator, full curve, poor fit]"
20,Cc1[nH]c2ccccc2c1/C=N/NC(=O)c1cccc([N+](=O)[O-])c1,"inconclusive: 35.5 µM [inhibitor, single point]"
21,CNc1nnc(-c2ccc(C)cc2)c2ccccc12,inactive
22,CN1CCC(NC(=O)c2cc(-c3cccc(Br)c3)nc3ccccc23)CC1,"inconclusive: 35.5 µM [inhibitor, single point]"
23,Cc1ccc(CNC(=O)C2CCCN(c3nn4c(=O)cc(C)nc4s3)C2)cc1 (centres undefined),inactive
24,CCc1nnc(NS(=O)(=O)c2ccc(N=CC3=C(O)CC(C)(C)CC3=O)cc2)s1,inactive
25,O=C(COC(=O)/C=C/c1ccccc1[N+](=O)[O-])Nc1ccc(OCc2ccccc2)cc1,"inconclusive: 35.5 µM [inhibitor, single point]"

row,Structure (SMILES),Potency
1,O=C(N/N=C/c1ccc[nH]1)c1ccc([N+](=O)[O-])cc1,active: 3.98 µM
2,O=C(Nc1nc(-c2ccncc2)cs1)C1COc2ccccc2O1 (centres undefined),"inconclusive: 15.8 µM [activator, single point]"
3,O=S(=O)(c1ccc(NC(=S)Nc2ccccc2)cc1)N1CCOCC1,"inconclusive: 35.5 µM [inhibitor, single point]"
4,Cc1ccc(NP(=O)(c2ccc(N(C)C)cc2NC(=O)c2cccs2)N2CCOCC2)cc1 (centres undefined),"inconclusive: 3.98 µM [activator, partial curve]"
5,CC(CC(=O)N1CCN(c2ccccc2F)CC1)c1ccccc1 (centres undefined),"inconclusive: 31.6 µM [activator, single point]"
6,COCCCNS(=O)(=O)c1ccc(Oc2ncc(C(F)(F)F)cc2Cl)cc1,"inconclusive: 11.2 µM [activator, partial curve]"
7,O=[N+]([O-])c1cc(Cl)ccc1Sc1ccccn1,inactive
8,CC(C)(C)S(=O)(=O)/C(C#N)=N/Nc1ccc(Cl)cc1,"inconclusive: 35.5 µM [inhibitor, single point]"
9,C#CCN(C)CCCOc1ccc(Cl)cc1Cl,"inconclusive: 10 µM [activator, partial curve, poor fit]"
10,CCCC(=O)Nc1ccc(Cl)c(NC(=S)NC(=O)c2ccco2)c1,"inconclusive: 5.62 µM [activator, single point]"
11,O=C1C=C(Nc2ccc(Cl)cc2)CC(c2ccc(Cl)cc2)C1 (centres undefined),"inconclusive: 10 µM [activator, partial curve]"
12,Cn1c(=O)[nH]c(=O)c2c1nc(Br)n2CCSc1nnnn1-c1ccccc1,inactive
13,CC(=O)C1=C(C)N(CC2CC2)C(=O)N[C@H]1c1ccccc1,"inconclusive: 1.26 µM [activator, partial curve]"
14,Cc1ccccc1C(=O)O/N=C(\c1ccccc1)c1ccccn1,"inconclusive: 0.316 µM [activator, full curve, poor fit]"
15,Nc1nc(CSC(=S)N2CCOCC2)nc(Nc2ccccc2)n1,"inconclusive: 2.51 µM [activator, partial curve]"
16,O=C(CN1CCC(n2nnc3cc(F)ccc32)CC1)Nc1ccccc1N1CCOCC1,inactive
17,CCCn1c(=S)[nH]c2cc(C(=O)N(CCO)Cc3ccccc3)ccc2c1=O,active: 12.6 µM
18,CSc1ccccc1NC(=S)NC1CCCC1,active: 6.31 µM
19,COc1cc(/C=N/n2cnnc2)ccc1OC(=O)c1cccnc1,"inconclusive: 7.94 µM [inhibitor, partial curve, poor fit]"
20,CC(C)(CO)Cc1cc(C(C)(C)C)c(O)c(C(C)(C)C)c1,"inconclusive: 14.1 µM [inhibitor, full curve, poor fit]"
21,CCOC(=O)c1ccc(N2C(=O)CC(Sc3nnc(C)s3)C2=O)cc1 (centres undefined),"inconclusive: 35.5 µM [inhibitor, single point]"
22,CCn1c(SCC(=O)NC2CCCCC2)nnc1-c1ccccc1F,inactive
23,CCCC(c1nnnn1Cc1ccccc1)N1CCN(c2ccccc2OC)CC1 (centres undefined),"inconclusive: 35.5 µM [inhibitor, single point]"
24,Cc1ccc(N(C)S(=O)(=O)c2nnc(NC(=O)c3ccco3)s2)cc1,inactive
25,Cc1ccc2nc(N/N=C\c3ccc([N+](=O)[O-])o3)nc(-c3ccccc3)c2c1,active: 10 µM

# Nothing new here: 17 of the compounds above.
row,Structure (SMILES),Potency
9,C#CCN(C)CCCOc1ccc(Cl)cc1Cl,"inconclusive: 10 µM [activator, partial curve, poor fit]"
10,CCCC(=O)Nc1ccc(Cl)c(NC(=S)NC(=O)c2ccco2)c1,"inconclusive: 5.62 µM [activator, single point]"
11,O=C1C=C(Nc2ccc(Cl)cc2)CC(c2ccc(Cl)cc2)C1 (centres undefined),"inconclusive: 10 µM [activator, partial curve]"
12,Cn1c(=O)[nH]c(=O)c2c1nc(Br)n2CCSc1nnnn1-c1ccccc1,inactive
13,CC(=O)C1=C(C)N(CC2CC2)C(=O)N[C@H]1c1ccccc1,"inconclusive: 1.26 µM [activator, partial curve]"
14,Cc1ccccc1C(=O)O/N=C(\c1ccccc1)c1ccccn1,"inconclusive: 0.316 µM [activator, full curve, poor fit]"
15,Nc1nc(CSC(=S)N2CCOCC2)nc(Nc2ccccc2)n1,"inconclusive: 2.51 µM [activator, partial curve]"
16,O=C(CN1CCC(n2nnc3cc(F)ccc32)CC1)Nc1ccccc1N1CCOCC1,inactive
17,CCCn1c(=S)[nH]c2cc(C(=O)N(CCO)Cc3ccccc3)ccc2c1=O,active: 12.6 µM
18,CSc1ccccc1NC(=S)NC1CCCC1,active: 6.31 µM
19,COc1cc(/C=N/n2cnnc2)ccc1OC(=O)c1cccnc1,"inconclusive: 7.94 µM [inhibitor, partial curve, poor fit]"
20,CC(C)(CO)Cc1cc(C(C)(C)C)c(O)c(C(C)(C)C)c1,"inconclusive: 14.1 µM [inhibitor, full curve, poor fit]"
21,CCOC(=O)c1ccc(N2C(=O)CC(Sc3nnc(C)s3)C2=O)cc1 (centres undefined),"inconclusive: 35.5 µM [inhibitor, single point]"
22,CCn1c(SCC(=O)NC2CCCCC2)nnc1-c1ccccc1F,inactive
23,CCCC(c1nnnn1Cc1ccccc1)N1CCN(c2ccccc2OC)CC1 (centres undefined),"inconclusive: 35.5 µM [inhibitor, single point]"
24,Cc1ccc(N(C)S(=O)(=O)c2nnc(NC(=O)c3ccco3)s2)cc1,inactive
25,Cc1ccc2nc(N/N=C\c3ccc([N+](=O)[O-])o3)nc(-c3ccccc3)c2c1,active: 10 µM

# Later entries.

row,Structure (SMILES),Potency
1,Cc1cc2ccccc2n1CCNC(=O)c1cccs1,active: 12.6 µM
2,C=C(C)COc1ccc(-c2[nH]ncc2-c2ccc(OC)c(OC)c2)c(O)c1,active: 1.78 µM
3,COc1ccc(-c2csc(Nc3cccc(C)n3)n2)cc1,"inconclusive: 35.5 µM [inhibitor, single point]"
4,CC(=O)Oc1ccccc1C1=NN(C(=O)/C=C/c2ccccc2)C(c2ccccc2)C1 (centres undefined),inactive
5,Cc1cc(NS(=O)(=O)c2ccc(NC(=O)C(C)Oc3cccc(C)c3C)cc2)nc(C)n1 (centres undefined),"inconclusive: 14.1 µM [activator, single point]"
6,CCOc1ccc(-c2ccc(SCC(=O)NCC3CCCO3)nn2)cc1 (centres undefined),"inconclusive: 35.5 µM [inhibitor, single point]"
7,N#C/C(=C\Nc1ccccc1O)c1nc2ccccc2o1,"inconclusive: 0.112 µM [inhibitor, full curve, poor fit]"
8,CCOc1cc(S(=O)(=O)NCc2cccs2)ccc1Cl,"inconclusive: 2.82 µM [inhibitor, partial curve]"
9,O=C(CCC1CCCN(C(=O)c2ccoc2)C1)NCc1ccccc1F (centres undefined),"inconclusive: 3.98 µM [activator, full curve]"
10,COc1ccc(Cc2nnc(NC(=O)c3c(-c4ccccc4)noc3C)s2)cc1OC,"inconclusive: 20 µM [inhibitor, single point]"
11,CC1CN/C(=C\C(=O)c2ccc(Br)cc2)C(=O)N1 (centres undefined),active: 12.6 µM
12,Cc1cc2ccccc2n1CCNC(=O)C1CCCCC1,inactive
13,c1ccc(Nc2nn[nH]n2)cc1,inactive
14,Cc1csc(N2CCN(c3cc4nc(-c5ccncc5)[nH]c4cc3Cl)CC2)n1,inactive
15,CCN(CC)C(=O)c1sc(NC(=O)c2c(OC)cccc2OC)c(C#N)c1C,inactive
16,CS(=O)(=O)c1ccc2nc(NC(=O)c3ccc(Cl)nc3)sc2c1,inactive
17,CC(=O)C1=C(c2ccccc2)NC(=O)NC1c1cccs1 (centres undefined),inactive
18,CCN1c2ccccc2-c2nc3ccccc3n2C1c1cccs1 (centres undefined),active: 12.6 µM
19,C/C=C/c1ccc2oc(-c3ccc(O)cc3)c(C)c2c1,"inconclusive: 3.55 µM [inhibitor, partial curve, poor fit]"
20,CCOC(=O)c1cc2c(=O)n3ccccc3nc2n(Cc2ccco2)c1=NC(=O)c1cccc(OC)c1,"inconclusive: 12.6 µM [inhibitor, single point]"
21,CCn1cc([N+](=O)[O-])c(C(=O)Nc2ccc3c(c2)OCCO3)n1,"inconclusive: 35.5 µM [activator, single point]"
22,CCOC(=O)CCNC(=O)c1ccc2nc(C3CCCCC3)oc2c1,"inconclusive: 17.8 µM [activator, single point]"
23,Cc1noc(C)c1C(=O)Nc1ccc2ccccc2c1,inactive
24,COc1ccc(CN(C(=O)CSc2nnc(-c3ccc(OC)c(OC)c3)o2)c2ccc(F)cc2)cc1,"inconclusive: 12.6 µM [activator, single point]"
